Laboratory results taken from article PMC10643122.
Results are given in words; binding and its absence hold for the method and conditions named. Some results given as binding are weak or reduced against the parent protein; the word gives no strength.

By UniProt entry, the sequences of proteins in these tests, tags left out. Where a name states a change or a piece, a line headed by the entry shows the natural chain unless it says otherwise. Residues count along the entry.
UniProt Q38SD2, residues 20-2015: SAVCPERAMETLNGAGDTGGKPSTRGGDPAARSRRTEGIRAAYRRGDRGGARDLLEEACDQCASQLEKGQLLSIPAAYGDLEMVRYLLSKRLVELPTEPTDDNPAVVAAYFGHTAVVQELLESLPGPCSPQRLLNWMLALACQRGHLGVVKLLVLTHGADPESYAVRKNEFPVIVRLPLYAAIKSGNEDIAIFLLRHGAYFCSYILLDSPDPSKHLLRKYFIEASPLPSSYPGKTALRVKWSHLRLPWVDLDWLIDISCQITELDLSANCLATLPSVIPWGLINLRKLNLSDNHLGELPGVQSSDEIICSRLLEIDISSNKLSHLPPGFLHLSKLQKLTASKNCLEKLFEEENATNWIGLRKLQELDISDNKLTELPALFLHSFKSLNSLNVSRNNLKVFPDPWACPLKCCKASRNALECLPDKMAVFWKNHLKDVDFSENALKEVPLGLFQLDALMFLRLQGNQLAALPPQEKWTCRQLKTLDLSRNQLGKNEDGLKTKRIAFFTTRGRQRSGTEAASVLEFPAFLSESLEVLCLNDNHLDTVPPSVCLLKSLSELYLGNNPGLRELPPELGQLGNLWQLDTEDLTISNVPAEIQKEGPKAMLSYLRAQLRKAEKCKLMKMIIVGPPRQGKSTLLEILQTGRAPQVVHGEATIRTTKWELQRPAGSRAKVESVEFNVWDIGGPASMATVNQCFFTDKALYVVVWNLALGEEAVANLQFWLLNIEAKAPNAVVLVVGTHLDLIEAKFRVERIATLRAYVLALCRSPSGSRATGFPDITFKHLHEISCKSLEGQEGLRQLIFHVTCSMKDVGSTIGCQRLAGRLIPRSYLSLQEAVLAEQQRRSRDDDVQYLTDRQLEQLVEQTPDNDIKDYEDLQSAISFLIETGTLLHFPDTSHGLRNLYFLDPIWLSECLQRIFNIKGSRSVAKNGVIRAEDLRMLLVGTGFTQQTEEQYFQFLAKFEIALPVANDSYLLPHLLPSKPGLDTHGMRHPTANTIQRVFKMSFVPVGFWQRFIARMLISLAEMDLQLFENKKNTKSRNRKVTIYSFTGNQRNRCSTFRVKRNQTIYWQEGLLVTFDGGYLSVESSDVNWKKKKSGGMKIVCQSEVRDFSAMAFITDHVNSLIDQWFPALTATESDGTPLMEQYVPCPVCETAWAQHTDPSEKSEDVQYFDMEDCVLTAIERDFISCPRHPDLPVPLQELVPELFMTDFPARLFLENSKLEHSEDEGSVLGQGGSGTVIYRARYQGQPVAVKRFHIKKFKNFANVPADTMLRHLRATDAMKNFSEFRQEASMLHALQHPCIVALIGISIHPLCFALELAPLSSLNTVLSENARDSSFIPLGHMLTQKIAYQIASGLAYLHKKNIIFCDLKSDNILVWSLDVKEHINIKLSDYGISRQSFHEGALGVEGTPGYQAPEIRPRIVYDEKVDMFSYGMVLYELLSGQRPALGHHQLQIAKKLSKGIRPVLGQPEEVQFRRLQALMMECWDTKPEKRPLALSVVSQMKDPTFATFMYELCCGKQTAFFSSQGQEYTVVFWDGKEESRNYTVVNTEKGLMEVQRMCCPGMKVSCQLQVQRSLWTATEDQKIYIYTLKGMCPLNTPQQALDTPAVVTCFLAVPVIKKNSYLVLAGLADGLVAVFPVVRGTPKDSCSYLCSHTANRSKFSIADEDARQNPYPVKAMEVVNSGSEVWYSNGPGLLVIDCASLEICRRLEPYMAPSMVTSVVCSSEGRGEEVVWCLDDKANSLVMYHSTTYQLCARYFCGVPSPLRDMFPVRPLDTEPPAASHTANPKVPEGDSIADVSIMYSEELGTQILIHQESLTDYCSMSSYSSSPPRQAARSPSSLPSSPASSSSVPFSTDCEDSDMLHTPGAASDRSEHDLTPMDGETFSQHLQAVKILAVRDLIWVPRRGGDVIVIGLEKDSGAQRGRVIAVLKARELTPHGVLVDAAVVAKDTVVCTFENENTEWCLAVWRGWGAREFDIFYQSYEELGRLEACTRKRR
UniProt P51149: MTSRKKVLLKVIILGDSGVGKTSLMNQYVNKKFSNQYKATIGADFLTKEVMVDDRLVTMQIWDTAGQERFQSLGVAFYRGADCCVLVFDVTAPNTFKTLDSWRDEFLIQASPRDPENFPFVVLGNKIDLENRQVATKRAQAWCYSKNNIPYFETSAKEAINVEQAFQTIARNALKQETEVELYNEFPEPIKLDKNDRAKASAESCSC

Target: LRRK1(Δ1–19) (human) (UniProt Q38SD2)
Assay: cryo-EM structure; 2 μM LRRK1(Δ1–19), 3 μM Rab7a, 1 mM GTP and 1 mM AMPcPP; both purified

Substance | binding
LRRK1(Δ1–19) (from UniProt Q38SD2-1 20-2015) (domain or fragment) | binds weakly
Rab7a (from UniProt P51149 1-207) | no binding (tested: 3 μM Rab7a with 2 μM LRRK1(Δ1–19))
